Experimental findings from PubChem BioAssay AID332 (DTP/NCI, 2004) are described below.

For this assay, the system named is mice, ADJ-PC-20 plasma cell tumor sc, T/C %. The assay is described as follows: NCI In Vivo Anticancer Drug Screen. Data for tumor model ADJ-PC-20 Plasma Cell (subcutaneous) in unknown mice. To be noted: T/C endpoint: mean tumor weight, higher T/C = larger tumour; for T/C: evaluated on day 21. The procedure:
The antitumor activity of compounds was measured in mice bearing transplantable tumors. Survival or tumor size were measured and the results are expressed as the measurement made in the treated group (T) divided by the measurement made in the vehicle treated control group (C). The tumor model used in this assay is ADJ-PC-20 Plasma Cell (subcutaneous) in unknown mice

[1] abbreviates: dose: 1.25 mg/kg/injection, schedule: Q01DX010 (ip), vehicle: other.
The mark [2] stands for this setting: dose: 200.0 mg/kg/injection, schedule: Q01DX010 (ip), vehicle: carboxymethylcellulose (CMC).
Where [3] appears, read: dose: 2.0 mg/kg/injection, schedule: Q01DX010 (ip), vehicle: carboxymethylcellulose (CMC).
[4] abbreviates: dose: 1.0 mg/kg/injection, schedule: Q01DX010 (ip), vehicle: carboxymethylcellulose (CMC).

The list does not hold the whole screen: it is rich in T/C values a quarter to a half above the control, in often repeated tests (any T/C) and in doses without a T/C. Other doses and runs of a compound stand elsewhere. T/C is the treated group as % of the vehicle group. Schedule codes are those of the source, read here as Q, the interval in days (D) or hours (H), X, the number of doses. Some molecules as drawn cover several salts, stereoisomers or complexes of the source; a dose is that of the sample tested. Some T/C values carry the count of animals alive at the toxicity check (mostly the fifth day); where none is given, no animal had died by that day. Some entries were tested several times; the values are given in rising order. Some entries give survivors of the animals treated and no T/C: the source files T/C as zero there, which appears to mark a toxic dose or a test without result, not a measured value. Survivors were counted at the toxicity check, usually on the fifth day, unless a day is given; later deaths do not show.

As to `COS(C)(=O)=O`, under “dose: 200.0 mg/kg/injection, schedule: Q01DX010 (ip), vehicle: water”, the survivor count was 0 of 10.
For `CN(Cc1cnc2nc(N)nc(N)c2n1)c1ccc(C(=O)N[C@@H](CCC(=O)O)C(=O)O)cc1`, the T/C was 49 [7 of 10 alive], 90, 91, 102, 113 % of control (dose: 0.31 mg/kg/injection, schedule: Q01DX010 (ip), vehicle: other); 15 [8 of 10 alive] and 31 % of control under setting [1]. The survivor count (dose: 0.62 mg/kg/injection, schedule: Q01DX010 (ip), vehicle: other) is on record as 0 of 10; the survivor count under setting [1] is 0 of 10 and 5 of 10; the survivor count (dose: 2.5 mg/kg/injection, schedule: Q01DX010 (ip), vehicle: other) is recorded as 5 of 10; the survivor count (dose: 2.5 mg/kg/injection, schedule: Q01DX011 (ip), vehicle: other) is 0 of 6; the survivor count (dose: 5.0 mg/kg/injection, schedule: Q01DX011 (ip), vehicle: other) was 0 of 6.
As for `C[C@]12CC[C@H](OC3OC(CO)C(O)C(O)C3O)C[C@H]1CC[C@@H]1[C@@H]2CC[C@]2(C)[C@@H](C3=CCOC3=O)CC[C@]12O` (some centres not stated), the survivor count (dose: 1.0 mg/kg/injection, schedule: Q01DX010 (ip), vehicle: saline) is recorded as 0 of 10; the survivor count (dose: 2.0 mg/kg/injection, schedule: Q01DX010 (ip), vehicle: saline) is listed as 0 of 10; the survivor count (dose: 4.0 mg/kg/injection, schedule: Q01DX010 (ip), vehicle: saline) is given as 0 of 10; the survivor count (dose: 8.0 mg/kg/injection, schedule: Q01DX010 (ip), vehicle: saline) was 0 of 10; the survivor count (dose: 500.0 micrograms/kg/injection, schedule: Q01DX010 (ip), vehicle: saline) is recorded as 3 of 10.
For `COC12C(COC(N)=O)C3=C(C(=O)C(C)=C(N)C3=O)N1CC1C2N1C` (configuration not stated), the survivor count (dose: 5.0 mg/kg/injection, schedule: Q01DX010 (ip), vehicle: carboxymethylcellulose (CMC)) is 2 of 10.
Regarding `C[C@]12C=CC(=O)C=C1CC[C@@H]1[C@@H]2C(=O)C[C@@]2(C)[C@H]1CC[C@]2(O)C(=O)CO`, the survivor count (dose: 100.0 mg/kg/injection, schedule: Q01DX010 (sc), vehicle: steroid suspending solution) is on record as 5 of 10 and the survivor count (dose: 200.0 mg/kg/injection, schedule: Q01DX010 (sc), vehicle: steroid suspending solution) is recorded as 0 of 6.
Take `CN(C)c1ccc(/C=C/c2ccnc3ccccc23)cc1`: the T/C by setting is: (dose: 8.0 mg/kg/injection, schedule: Q01DX010 (ip), vehicle: carboxymethylcellulose (CMC)) 132 and 146 % of control [8 of 10 alive]; (dose: 8.0 mg/kg/injection, schedule: Q01DX010 (ip), vehicle: water) 143 % of control. The survivor count is 0 of 10 (dose: 32.0 mg/kg/injection, schedule: Q01DX010 (ip), vehicle: carboxymethylcellulose (CMC)) and 0 of 10 (dose: 32.0 mg/kg/injection, schedule: Q01DX010 (ip), vehicle: water).
On to `CN(C)c1nc(N(C)C)nc(N(C)C)n1`, for which the T/C (dose: 125.0 mg/kg/injection, schedule: Q01DX010 (ip), vehicle: carboxymethylcellulose (CMC)) was 131 % of control.
Turning to `O=c1[nH]c(=O)n(C2CC(O)C(CO)O2)cc1F` (configuration not stated), the survivor count under setting [2] is reported as 0 of 10.
`CCCSc1ncnc2nc[nH]c12`: under setting [3], the T/C is 133 % of control.
On to `N#Cc1cn(C2OC(CO)C(O)C2O)c2ncnc(N)c12` (configuration not stated), for which the survivor count reads like this: (dose: 0.25 mg/kg/injection, schedule: Q01DX010 (ip), vehicle: carboxymethylcellulose (CMC)) 0 of 10; (dose: 0.5 mg/kg/injection, schedule: Q01DX010 (ip), vehicle: carboxymethylcellulose (CMC)) 1 of 10; under setting [4], 0 of 10.
Turning to `O[C@H](CN1CC1)[C@@H](O)CN1CC1`, the survivor count is, setting by setting: under setting [4], 0 of 10; under setting [3], 0 of 10.
Regarding `O=C(Nc1ccc(C2=NCCCN2)cc1)c1ccc(C(=O)Nc2ccc(C3=NCCCN3)cc2)cc1`, the survivor count (dose: 0.4 mg/kg/injection, schedule: Q01DX010 (ip), vehicle: water) is listed as 4 of 10; the survivor count (dose: 0.8 mg/kg/injection, schedule: Q01DX010 (ip), vehicle: water) is 0 of 10 and 4 of 10; the survivor count (dose: 1.6 mg/kg/injection, schedule: Q01DX010 (ip), vehicle: water) is 1 of 10 and 3 of 10; the survivor count (dose: 1.62 mg/kg/injection, schedule: Q01DX010 (ip), vehicle: saline) is recorded as 4 of 10; the survivor count (dose: 3.1 mg/kg/injection, schedule: Q01DX010 (ip), vehicle: water) was 0 of 10 and 2 of 10; the survivor count (dose: 6.25 mg/kg/injection, schedule: Q01DX010 (ip), vehicle: saline) is 0 of 10. In addition, the survivor count is 0 of 10 (dose: 12.5 mg/kg/injection, schedule: Q01DX010 (ip), vehicle: saline) and 0 of 10 (dose: 25.0 mg/kg/injection, schedule: Q01DX010 (ip), vehicle: saline).
Regarding `Cn1c(N)nc2nc[nH]c2c1=S`, the T/C (dose: 3.1 mg/kg/injection, schedule: Q01DX010 (ip), vehicle: carboxymethylcellulose (CMC)) was 132 % of control. Further, under setting [2], the survivor count is recorded as 6 of 10.
As for `CCCCNc1ncnc2c1cnn2C`, the T/C (dose: 6.25 mg/kg/injection, schedule: Q01DX010 (ip), vehicle: carboxymethylcellulose (CMC)) was 135 % of control. Also, the survivor count is reported as 0 of 10 (dose: 100.0 mg/kg/injection, schedule: Q01DX010 (ip), vehicle: carboxymethylcellulose (CMC)) and 0 of 10 under setting [2].
On to `c1ccc(CNc2ncnc3[nH]ncc23)cc1`, for which the survivor count is given as 1 of 10 (dose: 64.0 mg/kg/injection, schedule: Q01DX010 (ip), vehicle: carboxymethylcellulose (CMC)) and 0 of 10 (dose: 128.0 mg/kg/injection, schedule: Q01DX010 (ip), vehicle: carboxymethylcellulose (CMC)).
Take `CC(=O)OCC1OC(n2ncc(=O)[nH]c2=O)C(OC(C)=O)C1OC(C)=O` (configuration not stated): the survivor count (dose: 1000.0 mg/kg/injection, schedule: Q01DX010 (ip), vehicle: other) is 0 of 10.
Regarding `O=c1cn[nH]c(=O)[nH]1`, the survivor count by setting is: (dose: 2000.0 mg/kg/injection, schedule: Q01DX010 (ip), vehicle: carboxymethylcellulose (CMC)) 3 of 10; (dose: 4000.0 mg/kg/injection, schedule: Q01DX010 (ip), vehicle: carboxymethylcellulose (CMC)) 6 of 10.
For the molecule `CN(C)c1ccc(/C=C\c2ccnc3ccccc23)cc1`, the survivor count was 0 of 10 (dose: 50.0 mg/kg/injection, schedule: Q01DX010 (ip), vehicle: water); 6 of 10 (dose: 50.0 mg/kg/injection, schedule: Q01DX011 (ip), vehicle: water); 0 of 10 (dose: 100.0 mg/kg/injection, schedule: Q01DX011 (ip), vehicle: water); 1 of 10 (dose: 200.0 mg/kg/injection, schedule: Q01DX011 (ip), vehicle: water).
As for `CN(C)c1ccc(Nc2c3ccccc3nc3ccccc23)cc1`, the T/C was 136 % of control (dose: 12.5 mg/kg/injection, schedule: Q01DX010 (ip), vehicle: carboxymethylcellulose (CMC)) and 136 % of control (dose: 50.0 mg/kg/injection, schedule: Q01DX010 (ip), vehicle: carboxymethylcellulose (CMC)). The survivor count is, setting by setting: under setting [2], 0 of 10; (dose: 400.0 mg/kg/injection, schedule: Q01DX010 (ip), vehicle: carboxymethylcellulose (CMC)) 0 of 10.
Consider `CCCCCCCCCCCCNCCCCCCCCCCCC`, for which the survivor count is reported as 0 of 10 (dose: 15.0 mg/kg/injection, schedule: Q01DX010 (ip), vehicle: carboxymethylcellulose (CMC)); 0 of 10 (dose: 30.0 mg/kg/injection, schedule: Q01DX010 (ip), vehicle: carboxymethylcellulose (CMC)); 0 of 10 (dose: 60.0 mg/kg/injection, schedule: Q01DX010 (ip), vehicle: carboxymethylcellulose (CMC)).
